PubChem BioAssay AID652259 | Drosophila RNAi Screening Center | 2013

- Assay: 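Genome-wide hunt for genes that control Wingless pathway activity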 (primary screen)
- System: Drosophila clone 8 imaginal disc epithelial cells
- Knock-down reagent: long dsRNA against Drosophila genes
- Conditions: pathway stimulated by co-transfected Wingless expression plasmid
- Read-out: 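Dual luciferase reads per well after Wingless plasmid stimulation: reporter firefly light and Renilla control light; activity is firefly divided by Renilla, a ratio not deposited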
- Reading the numbers: firefly reporter light: higher = more Wg reporter light, before normalisation; Renilla control light: higher = more transfected or surviving cells
- Call rule: 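a knock-down is a candidate when at least two out of four statistical tests show it departing from its plate mean; one test alone signals a weak candidate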
- Meaning of the calls: active = candidate regulator (raises or lowers reporter); inactive = not a candidate
The screen tested about 22,000 reagents; this is a random part of those with a known target gene and a result. Over the whole deposit, 233 (1.1%) are marked active. 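Light values are raw, unnormalised plate reads; the ratio scores behind the reporter calls were not deposited.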 Names joined by + are all predicted targets of the reagent. No sequences are given here. Not stated in the record: the amount of reagent, the time to read-out, the dose of the treatment.

CR13656 (GeneID 8674041) [DRSC13705] → firefly reporter light, replicate 1 = 5629; Renilla control light, replicate 1 = 1425; activity call = inactive
CR13656 (GeneID 8674041) [DRSC14656] → firefly reporter light, replicate 1 = 19387; Renilla control light, replicate 1 = 15323; activity call = inactive
dbe (GeneID 33269) [DRSC00811] → firefly reporter light, replicate 1 = 13136; Renilla control light, replicate 1 = 5442; activity call = inactive
Hmbs (GeneID 46140) [DRSC08632] → firefly reporter light, replicate 1 = 15376; Renilla control light, replicate 1 = 3298; activity call = inactive

Records above whose gene name begins with C or c (2):
CR13656 (GeneID 8674041) [DRSC13705] → firefly reporter light, replicate 1 = 5629; Renilla control light, replicate 1 = 1425; activity call = inactive
CR13656 (GeneID 8674041) [DRSC14656] → firefly reporter light, replicate 1 = 19387; Renilla control light, replicate 1 = 15323; activity call = inactive

Further reagents follow:
Cpsf73 (GeneID 42240) [DRSC16291] → firefly reporter light, replicate 1 = 17318; Renilla control light, replicate 1 = 4712; activity call = inactive
Obp56h (GeneID 37271) [DRSC06433] → firefly reporter light, replicate 1 = 6515; Renilla control light, replicate 1 = 1909; activity call = inactive
CG2616 (GeneID 40915) [DRSC15440] → firefly reporter light, replicate 1 = 15664; Renilla control light, replicate 1 = 2841; activity call = inactive
CG44774 (GeneID 31424) [DRSC18342] → firefly reporter light, replicate 1 = 17841; Renilla control light, replicate 1 = 7989; activity call = inactive
CG10163 (GeneID 38728) [DRSC09710] → firefly reporter light, replicate 1 = 923; firefly reporter light, replicate 2 = 7249; Renilla control light, replicate 1 = 954; Renilla control light, replicate 2 = 3232; activity call = inactive
mRpS18A (GeneID 326141) [DRSC14369] → firefly reporter light, replicate 1 = 7578; Renilla control light, replicate 1 = 2250; activity call = inactive
Exo84 (GeneID 43163) [DRSC15965] → firefly reporter light, replicate 1 = 15033; Renilla control light, replicate 1 = 10656; activity call = inactive
Mvk + CG33672 + spt4 [DRSC05356] → firefly reporter light, replicate 1 = 19280; Renilla control light, replicate 1 = 16048; activity call = inactive
Mvk + CG33672 + spt4 [DRSC06628] → firefly reporter light, replicate 1 = 7805; Renilla control light, replicate 1 = 2290; activity call = inactive
